The other results are listed elsewhere or left out. Further columns of the screen follow, without active or inactive calls. The list favours compounds with an active or inconclusive main result. Words in brackets tell the shape of the fitted curve; partial curves, single points and poor fits give uncertain potencies.
Experiment: qHTS Assay for Lipid Storage Modulators in Drosophila S3 Cells;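 for cell number change: cells counted by Cell Tracker Red CMTPX staining in the red channel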
Details: BODIPY lipid droplet fluorescence, 18-24 h; for cell number change: measured here: cell count max response, cells fed with added oleic acid
Outline: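 Drosophila S3 cells got compounds at several concentrations plus oleic acid (400 uM solution). Laser-scanning cytometry with 488 nm excitation read lipid droplets at 500-530 nm and cells at 575-640 nm. Percent activity was relative to 20 uM Triacsin C.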

[1] = measured here: lipid fluorescence (Fed channel) AC50, cells fed with added oleic acid
[2] = measured here: cell number channel AC50, cells fed with added oleic acid

SMILES | AC50 [1] | cell number change [%] | AC50 [2]
CC(C)CCNC(=O)C(c1ccc(O)cc1)N(Cc1cccs1)C(=O)C1COc2ccccc2O1 (stereo unspecified) | 20.6 µM [rising, single point] | – | –
CC(C)C(=O)Nc1ccc2nn(-c3ccccc3)nc2c1 | – | -21.9 | 2.91 µM [falling, single point]
COc1cccc(-c2nc(CS(=O)(=O)CC(=O)Nc3c(C)cccc3C)c(C)o2)c1 | 4.11 µM [rising, partial curve, poor fit] | – | 2.59 µM [rising, partial curve]
O=[N+]([O-])c1cc([N+](=O)[O-])c(Oc2cncc(Cl)c2)cc1NN1CCCCC1 | 16.4 µM [falling, single point] | 2.4 | 6.51 µM [rising, single point]
CC(C)[C@@H]1CC[C@@H](C)C[C@H]1OC(=O)C[n+]1cc(-c2ccc(Cl)cc2)n2c1CCCCC2 | 6.51 µM [falling, full curve, poor fit] | -25.6 | 4.11 µM [falling, single point]
Cc1ccnc(NC(=O)CCC(=O)N(CC(=O)NCc2ccccc2)Cc2ccc(F)cc2)c1 | 6.51 µM [falling, partial curve] | – | –
CN(c1ccccc1C(=O)NCc1ccccc1Cl)S(=O)(=O)c1ccccc1 | 13 µM [falling, partial curve, poor fit] | -2.19 | –
COC(=O)c1cc(NCc2ccc3c(c2)OCO3)ccc1N1CCOCC1 | 1.64 µM [rising, partial curve] | -8 | –
Fc1ccc(-c2nnc(Cc3nnc(-c4ccc(F)cc4)o3)o2)cc1 | 23.1 µM [rising, single point] | 7.85 | –
NS(=O)(=O)c1ccc(CCNC(=O)c2ccccc2[N+](=O)[O-])cc1 | – | 136 | 29.1 µM [rising, single point]
CCOC(=O)C1CCN(C(=O)CN(c2cc(OC)ccc2OC)S(=O)(=O)c2ccccc2)CC1 | – | -14.7 | –
C/C(=N\NC(=O)c1ccoc1C)c1ccc(Cl)s1 | 4.11 µM [rising, full curve] | -29.7 | –
CCN1/C(=C/c2ccc3cc(C)ccc3[n+]2CC)Sc2ccccc21 | 1.16 µM [falling, full curve] | -60.6 | 2.06 µM [falling, partial curve]
CC(C)(C)OC(=O)CNC(=O)c1[nH]cnc1C(=O)NCC(=O)OCc1ccccc1 | 2.06 µM [falling, partial curve, poor fit] | 25.4 | –
CCCC1(c2ccccc2)NC(=O)N(CC(=O)NCC2COc3ccccc3O2)C1=O (stereo unspecified) | 2.06 µM [falling, partial curve] | 14.4 | 1.3 µM [falling, full curve, poor fit]
Cc1ccc(Cl)cc1NC(=O)Cn1cc2c(n1)CCCC2 | 11.6 µM [rising, partial curve] | -11.9 | –
c1csc(Cn2nnnc2CN2CCN(c3nc4ccccc4s3)CC2)c1 | 16.4 µM [rising, partial curve, poor fit] | -21.4 | –
Cc1ccc(CNC(=O)c2ccc(NS(=O)(=O)c3c(C)noc3C)cc2)cc1 | – | -5.34 | 6.51 µM [falling, single point]
COCC(=O)OCC(=O)Nc1cc(C)c(C)cc1[N+](=O)[O-] | 6.51 µM [falling, single point] | -50 | 29.1 µM [falling, single point]
N=c1c(C(=O)NCc2ccco2)cc2c(=O)n3ccccc3nc2n1C1CCCC1 | 1.84 µM [falling, full curve] | – | –
CC(=O)c1cc(NC(=O)c2ccc(C)cc2)c(=O)oc1/C=C/N(C)C | 0.58 µM [falling, single point] | – | –
O=C(NCCCN1CCOCC1)c1cc(-c2ccc(F)cc2)no1 | 1.3 µM [falling, partial curve] | -23.7 | –
CCC1=NN(C(=O)Cc2ccc(OC)cc2)C(O)(C(F)(F)F)C1 (stereo unspecified) | – | 121 | 29.1 µM [rising, partial curve, poor fit]
Nc1ccc(N2C(=O)c3ccccc3C2=O)c(Cl)c1 | 2.91 µM [rising, partial curve, poor fit] | 36.4 | 14.6 µM [rising, partial curve, poor fit]
CC(C)COC(=O)N1C[C@H](O)C[C@H]1C(=O)Nc1ccc(Cl)cc1 | 2.91 µM [rising, single point] | 6.02 | –
CCOC(=O)c1c(C)[nH]c(C(=O)OCC(=O)Nc2cc(C)ccc2OC)c1C | 0.326 µM [rising, full curve] | -2.23 | –
CCCNC(=O)c1onc(CSc2ccccc2)c1C(=O)NCCC | 0.731 µM [falling, partial curve] | 12.7 | –
COc1ccc(CNc2ncc(-c3ccccc3)n2C)cc1 | – | 12.4 | –

Four compounds out of the list, arranged by count of non-hydrogen atoms, largest number first:
SMILES | AC50 [1] | cell number change [%] | AC50 [2]
CN(c1ccccc1C(=O)NCc1ccccc1Cl)S(=O)(=O)c1ccccc1 | 13 µM [falling, partial curve, poor fit] | -2.19 | –
CCN1/C(=C/c2ccc3cc(C)ccc3[n+]2CC)Sc2ccccc21 | 1.16 µM [falling, full curve] | -60.6 | 2.06 µM [falling, partial curve]
COCC(=O)OCC(=O)Nc1cc(C)c(C)cc1[N+](=O)[O-] | 6.51 µM [falling, single point] | -50 | 29.1 µM [falling, single point]
Nc1ccc(N2C(=O)c3ccccc3C2=O)c(Cl)c1 | 2.91 µM [rising, partial curve, poor fit] | 36.4 | 14.6 µM [rising, partial curve, poor fit]

Following part.

SMILES | AC50 [1] | cell number change [%] | AC50 [2]
COc1ccc(CNC(=S)N2CCN(Cc3ccccc3)CC2)cc1 | 3.66 µM [rising, single point] | 17.9 | –
CN(CC(=O)NCc1ccc(F)cc1)S(=O)(=O)c1ccc(Br)s1 | – | 42.1 | 4.61 µM [rising, full curve, poor fit]
S=c1[nH]nc(-c2ccccc2Br)n1Cc1ccccc1 | 13 µM [falling, partial curve] | 5.77 | –
COc1cccc(C2NC(=O)NC(O)(C(F)(F)F)C2C(=O)c2cccnc2)c1OC (stereo unspecified) | 0.411 µM [falling, full curve, poor fit] | -12.4 | –
CC(C)CC(=O)Nc1ccc(C(=O)CN2C(=O)NC3(CCOc4ccccc43)C2=O)cc1 (stereo unspecified) | – | – | 0.58 µM [rising, single point]
O=C1CC(c2ccc(S(=O)(=O)N3CCN(c4ccccc4)CC3)cc2)CN1 (stereo unspecified) | – | – | 0.82 µM [rising, full curve]
O=C(Nc1ccc2oc(-c3ccccc3)nc2c1)c1ccco1 | – | 23.9 | –
O=C(CCN1CCC(c2cccs2)=N1)c1cccs1 | 6.51 µM [falling, single point] | -36.5 | 4.11 µM [falling, full curve]
Cc1cccc(OCC(=O)NC(=S)NNC(=O)c2ccncc2)c1 | 11.6 µM [falling, single point] | -30.8 | 10.3 µM [falling, partial curve]
COc1ccc(NC(=O)c2cccc(N3C(=O)C4C5CCC(C5)C4C3=O)c2)cc1 (stereo unspecified) | – | -5.87 | –
COc1ccc(N2CCN(CCCNC(=O)c3cc4sccc4n3C)CC2)cc1 | 7.31 µM [rising, partial curve, poor fit] | 18.5 | –
CC(CC(=O)Nc1ccc(F)c([N+](=O)[O-])c1)c1ccccc1 (stereo unspecified) | – | 33.3 | 18.4 µM [rising, single point]
COc1ccc(N(C(=O)C(C)C)S(=O)(=O)c2ccc3ccccc3c2)cc1 | 29.1 µM [falling, single point] | 7.3 | 4.11 µM [rising, partial curve, poor fit]
CC1CCCCC1NC(=O)C1CCCN(S(=O)(=O)c2ccc(-n3cnnn3)cc2)C1 (stereo unspecified) | – | 8.75 | –
CCN1C(=O)[C@H]2[C@@H](c3ccc(-c4ccc(Cl)c(Cl)c4)c(OC)c3)N[C@@](Cc3ccccc3)(C(=O)OC)[C@H]2C1=O | 2.59 µM [falling, partial curve] | 1.19 | –
CN(C)c1ccc(/C=N/NC(=O)c2nnn(-c3nonc3N)c2COc2ccc(F)cc2)cc1 | 29.1 µM [falling, single point] | -31.5 | 29.1 µM [falling, single point]
O=C(c1ccc2c(c1)OCO2)C1CCCN(Cc2c(F)ccc(F)c2F)C1 (stereo unspecified) | – | 3.3 | –
CCCCCCCNC(=O)C1(CC2CC(c3cccc(Br)c3)=NO2)CCN(C(=O)Cc2ccc(F)cc2)CC1 (stereo unspecified) | 0.517 µM [falling, full curve] | 4.16 | 0.461 µM [falling, full curve]
COc1ccccc1C(=O)O/N=C(\c1ccccc1)c1ccncc1 | – | 34 | 29.1 µM [rising, single point]
COc1ccc(S(=O)(=O)N2CCCCC2)cc1NC(=O)CCCOc1ccc(C)cc1 | 0.0731 µM [falling, partial curve, poor fit] | -6.29 | –
COc1ccc(CN(Cc2cccn2C)S(=O)(=O)c2ccc(C)cc2)cc1 | 0.326 µM [rising, full curve, poor fit] | – | –
CCC(CO)Nc1ccc(-c2nn(C)c(=O)c3ccccc23)cc1[N+](=O)[O-] (stereo unspecified) | 5.17 µM [falling, partial curve] | -35.1 | 13 µM [falling, partial curve]
O=C(Nc1ccc2c(c1)C(=O)OC2)c1ccc(Cl)cc1Cl | 23.1 µM [rising, partial curve] | 62.6 | 20.6 µM [rising, single point]
Cc1ccc(Cl)cc1NC(=O)c1ccc(NC(=O)CCC(=O)O)cc1 | 29.1 µM [falling, single point] | -62 | 29.1 µM [falling, single point]
O=C1NC(=S)N/C1=C/c1ccc2c(c1)OCO2 | 29.1 µM [falling, single point] | -18 | –
c1ccc(Cn2c(CNc3nc4ccccc4n3CCN3CCOCC3)nc3ccccc32)cc1 | – | 0.247 | 6.51 µM [falling, single point]
CC(C)CN(C(=O)COC(=O)c1c(Cl)ccc(Cl)c1Cl)C1CCS(=O)(=O)C1 (stereo unspecified) | 4.11 µM [rising, single point] | -29.8 | –

Reference: PubChem BioAssay AID2685 (National Center for Advancing Translational Sciences (NCATS), 2010)
